Data as given in PMC10359004.

Amino acid sequences for entries named in this document (tags omitted). A change or cut given only in a name is not applied to a line headed by its entry.
UniProt Q8IPI4: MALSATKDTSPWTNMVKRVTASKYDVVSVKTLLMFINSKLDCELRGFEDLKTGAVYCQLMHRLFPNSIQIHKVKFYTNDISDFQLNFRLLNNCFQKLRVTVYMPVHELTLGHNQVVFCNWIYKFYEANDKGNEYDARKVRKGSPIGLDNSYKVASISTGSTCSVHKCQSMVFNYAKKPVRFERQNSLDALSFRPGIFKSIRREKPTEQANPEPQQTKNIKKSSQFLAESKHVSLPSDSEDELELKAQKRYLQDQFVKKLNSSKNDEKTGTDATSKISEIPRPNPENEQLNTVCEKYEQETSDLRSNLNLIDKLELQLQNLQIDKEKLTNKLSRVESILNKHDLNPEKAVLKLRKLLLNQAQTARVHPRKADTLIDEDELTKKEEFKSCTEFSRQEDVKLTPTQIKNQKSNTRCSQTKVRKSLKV

Biological target: Mst27D-EGFP (expressed in testes from the transgene g-Mst27D-EGFP) (D. melanogaster) (UniProt Q8IPI4)
Experiment: affinity purification with mass spectrometry; Mst27D-EGFP purified with anti-GFP beads (uMACS) from extracts of about 9000 testes of late larvae and early pupae, four replicates; lysis buffer 20 mM Tris-HCl pH 7.5, 150 mM NaCl, 2 mM MgCl2, 0.1% NP-40, 5% glycerol, Benzonase; 4°C; controls EGFP, MNM-EGFP, SNM-EGFP, UNO-EGFP

- binding: binds
B1: RanGAP (endogenous, testis) (protein, UniProt Q9VIW3 1-596)
chain: MSTFNFASMAAQLGQEQGISFENKVLSWNTAADVQDVVDALNKQTTVHYLNLDGNTLGVEAAKAIGEGLKRHPEFRKALWKNMFTGRLISEIPEALKHLGAALIVAGAKLTVLDLSDNALGPNGMRGLEELLRSPVCYSLQELLLCNCGLGPEGGSMLSRALIDLHANANKAGFPLQLRVFIGSRNRLEDAGATEMATAFQTLKTFEEIVLEQNSIYIEGVEALAESFKHNPHLRVLNMNDNTLKSEGAEKIAEALPFLPLLREMSFGDCLIKTNGAYHFGEALERGNERLEVIDLGFNEINSDGGLVLVNAMGNKPKLRILNLDGNSFGEEGSEKIISEMSKLPTAAALQPFQHQEEEDLEDEYQADKQDADYEEEEEVHEHANDTTEEADEDSEGDEDDEEDEGDEEYSNVAEETAYVTTNAYTTKLFNDTTNSMASETFAVANKTISQKCTPEKFCLSQKPCSQEDFDSLDMDNKLEALQSIVNQFTGDNHLLLLVFTTLKCAHLSQSSKAALDLAVSLYQATFDYAIKTKQETRVLNYVLMQLRLLPCKEVFHSDYDVKNCRFALREALKQPTFANDNIKNSFKTFLEGAES

No constants are given. Whether binding was seen depends on the method and setting. In cells and extracts the contact can be indirect. A yes stands for co-enrichment or nearness to the bait. Other partners may have been found.
